Measurements taken from PMC7140707.

Biological target: T1, TAP-tagged Mot3 (S. cerevisiae) (UniProt P54785)
T1 sequence: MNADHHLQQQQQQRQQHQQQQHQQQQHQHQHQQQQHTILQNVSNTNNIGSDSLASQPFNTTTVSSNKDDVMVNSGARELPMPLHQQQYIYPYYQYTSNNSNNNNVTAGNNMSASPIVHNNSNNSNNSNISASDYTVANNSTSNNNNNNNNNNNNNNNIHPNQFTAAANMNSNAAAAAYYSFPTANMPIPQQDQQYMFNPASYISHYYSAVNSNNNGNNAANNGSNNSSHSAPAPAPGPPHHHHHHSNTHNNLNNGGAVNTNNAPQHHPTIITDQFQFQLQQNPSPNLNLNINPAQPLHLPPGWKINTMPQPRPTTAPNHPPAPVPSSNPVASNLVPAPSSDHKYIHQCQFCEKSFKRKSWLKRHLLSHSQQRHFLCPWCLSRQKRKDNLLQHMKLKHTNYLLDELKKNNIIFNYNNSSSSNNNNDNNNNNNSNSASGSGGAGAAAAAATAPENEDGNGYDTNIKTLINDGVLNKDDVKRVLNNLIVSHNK
Test: co-IP; TAP pull-down: extracts of yeast cells expressing a TAP-tagged protein and tagged Gis1 or Gis1 deletion protein incubated with IgG-Sepharose beads, 4 °C; Western blot with anti-TAP, anti-FLAG or anti-Myc

Myc-tagged Gis1ΔNC (yeast (S. cerevisiae)) (domain or fragment)
binding: binds

These are yes or no findings as the source states them, for the method shown. Binding seen in cells or lysates may run through a third protein. A result given as binding can be weak or reduced; the word gives no strength. Sequences can lack the tags named with a protein.
